Test results from paper PMC4287497, “Phosphorylation of Elp1 by Hrr25 Is Required for Elongator-Dependent tRNA Modification in Yeast” (PLoS Genetics, 2015).
Where a chain is given by its changes, count along the chain named. In names and notes the source's numbering stands. Results are given in words; binding and its absence hold for the method and conditions named. For part of these data: Binding seen in cells or lysates may run through a third protein. Some binding calls cover weakened binding; strength is not graded here. For part of these data: Sequences can lack the tags named with a protein.

T1: Elp2-myc3 (S. cerevisiae) (UniProt P42935)
T1 sequence: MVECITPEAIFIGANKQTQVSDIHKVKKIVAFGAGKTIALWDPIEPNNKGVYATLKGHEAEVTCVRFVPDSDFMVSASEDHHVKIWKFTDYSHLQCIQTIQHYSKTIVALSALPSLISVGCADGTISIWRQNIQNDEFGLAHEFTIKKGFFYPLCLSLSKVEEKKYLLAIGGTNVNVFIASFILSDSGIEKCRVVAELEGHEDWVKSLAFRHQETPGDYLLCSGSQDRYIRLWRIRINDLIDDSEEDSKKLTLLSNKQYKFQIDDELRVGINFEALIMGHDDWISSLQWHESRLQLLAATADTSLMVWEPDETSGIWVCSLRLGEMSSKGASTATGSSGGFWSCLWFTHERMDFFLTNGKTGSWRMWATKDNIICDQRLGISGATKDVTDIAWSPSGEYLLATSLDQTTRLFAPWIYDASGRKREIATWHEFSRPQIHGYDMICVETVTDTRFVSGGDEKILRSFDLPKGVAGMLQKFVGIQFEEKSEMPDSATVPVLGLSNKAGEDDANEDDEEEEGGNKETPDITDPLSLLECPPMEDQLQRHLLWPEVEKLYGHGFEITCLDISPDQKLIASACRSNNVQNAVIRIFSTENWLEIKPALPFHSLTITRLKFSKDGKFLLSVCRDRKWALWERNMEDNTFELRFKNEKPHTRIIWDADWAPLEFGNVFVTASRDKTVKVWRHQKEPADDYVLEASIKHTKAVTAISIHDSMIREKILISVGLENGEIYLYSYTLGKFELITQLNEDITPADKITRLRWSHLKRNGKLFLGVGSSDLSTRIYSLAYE

T2: Elp1-HA (S7 Fig) (S. cerevisiae) (UniProt Q06706)
T2 sequence: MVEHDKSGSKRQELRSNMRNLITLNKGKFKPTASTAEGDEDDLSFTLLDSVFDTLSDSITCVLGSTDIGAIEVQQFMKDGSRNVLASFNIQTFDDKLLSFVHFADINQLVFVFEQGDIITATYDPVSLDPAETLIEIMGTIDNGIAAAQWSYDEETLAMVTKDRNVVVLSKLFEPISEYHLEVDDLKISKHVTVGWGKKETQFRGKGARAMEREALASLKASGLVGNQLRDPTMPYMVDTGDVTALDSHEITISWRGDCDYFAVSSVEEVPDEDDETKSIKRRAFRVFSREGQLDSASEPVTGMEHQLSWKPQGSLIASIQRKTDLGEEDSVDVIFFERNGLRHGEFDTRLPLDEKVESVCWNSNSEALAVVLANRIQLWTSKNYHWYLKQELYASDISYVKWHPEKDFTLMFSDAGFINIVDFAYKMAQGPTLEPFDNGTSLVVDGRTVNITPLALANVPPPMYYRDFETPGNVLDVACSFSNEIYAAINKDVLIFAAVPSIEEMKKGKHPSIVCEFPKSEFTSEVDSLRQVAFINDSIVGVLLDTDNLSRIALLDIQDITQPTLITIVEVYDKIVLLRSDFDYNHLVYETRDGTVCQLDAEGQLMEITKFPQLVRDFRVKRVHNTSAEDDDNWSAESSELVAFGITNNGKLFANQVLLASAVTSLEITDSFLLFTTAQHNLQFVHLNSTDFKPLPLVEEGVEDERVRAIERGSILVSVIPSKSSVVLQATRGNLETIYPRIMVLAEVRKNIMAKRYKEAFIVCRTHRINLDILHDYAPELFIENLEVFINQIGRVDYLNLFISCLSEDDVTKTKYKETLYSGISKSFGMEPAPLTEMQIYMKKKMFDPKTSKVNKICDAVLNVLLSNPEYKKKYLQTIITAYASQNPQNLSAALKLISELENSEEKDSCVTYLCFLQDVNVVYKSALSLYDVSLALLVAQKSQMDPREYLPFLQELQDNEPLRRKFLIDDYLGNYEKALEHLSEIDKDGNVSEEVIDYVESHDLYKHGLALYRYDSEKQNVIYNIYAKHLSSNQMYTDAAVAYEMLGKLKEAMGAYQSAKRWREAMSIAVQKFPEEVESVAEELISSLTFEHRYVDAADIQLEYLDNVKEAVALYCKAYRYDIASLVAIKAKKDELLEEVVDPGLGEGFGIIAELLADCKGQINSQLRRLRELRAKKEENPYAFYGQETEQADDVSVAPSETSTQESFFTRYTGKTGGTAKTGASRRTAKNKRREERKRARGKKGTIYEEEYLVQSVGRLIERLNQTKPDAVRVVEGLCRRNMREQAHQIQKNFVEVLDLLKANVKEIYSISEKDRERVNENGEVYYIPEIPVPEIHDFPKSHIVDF

T3: Elp3-TAP (S. cerevisiae) (UniProt Q02908)
T3 sequence: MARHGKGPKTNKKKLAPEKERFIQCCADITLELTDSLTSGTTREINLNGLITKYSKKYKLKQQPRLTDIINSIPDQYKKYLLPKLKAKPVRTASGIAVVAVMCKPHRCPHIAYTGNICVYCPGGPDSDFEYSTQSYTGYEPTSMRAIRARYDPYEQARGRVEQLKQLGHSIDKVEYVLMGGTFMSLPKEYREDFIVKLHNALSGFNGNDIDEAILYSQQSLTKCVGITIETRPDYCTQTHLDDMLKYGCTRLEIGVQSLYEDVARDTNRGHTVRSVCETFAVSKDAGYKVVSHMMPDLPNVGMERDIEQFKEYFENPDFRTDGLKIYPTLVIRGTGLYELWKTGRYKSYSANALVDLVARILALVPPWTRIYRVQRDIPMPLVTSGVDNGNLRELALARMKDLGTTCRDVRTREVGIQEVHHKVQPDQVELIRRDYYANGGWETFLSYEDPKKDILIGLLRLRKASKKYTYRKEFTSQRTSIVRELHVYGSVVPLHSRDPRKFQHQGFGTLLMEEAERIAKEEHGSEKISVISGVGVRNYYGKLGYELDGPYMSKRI

B1: Elp1-6HA (wild-type, from YCplac111-ELP1-6HA) (protein, UniProt Q06706 1-1349)
chain: T2 sequence
B2: Elp1-S1198A S1202A-6HA (protein, UniProt Q06706 1-1349)
chain: T2 sequence with S1198A, S1202A
B3: Elp1-S1209A-6HA (protein, UniProt Q06706 1-1349)
chain: T2 sequence with S1209A
B4: Elp1-S1198E S1202E-6HA (protein, UniProt Q06706 1-1349)
chain: T2 sequence with S1198E, S1202E
B5: Kti12-myc (S7 Fig) (protein, UniProt P34253 1-313)
chain: MPLVLFTGYPCSGKTTLAKHLVQLLQSKIDATPSLSKYSITYHSDESLGIKHSDYITSQDERKLRSEIISAVKRDLSKNKIVIVDSLNYIKGFRYQLHCEVKNLSTTFCVIQTLCPPETIFEWNKTSNPNPWEPELLNQLIQRYEEPNSSNRWDSPLFAILTPQDNITDYIDDICKVVFQTSKSAKNSGHNDPLSKGLQKPNSATVLKPASQSNFIQVLDIETSKIIKTIMNHIKSLTSIGGVSNGTRVIVSEGITDINDDGCFFVDLPIGNVVTLAQLQRLKRQFINFNKLRDIDQDRIGPLFADYLNKNLN

These binders were tested against T1, Elp2-myc3 (S. cerevisiae) (assay: co-IP; Elp2-myc immunoprecipitated from extracts of elp1Δ yeast strains carrying plasmid-borne ELP1-6HA alleles (antibody coupled to Dynabeads, B60 buffer); Western blot with anti-myc, anti-HA and anti-Hrr25).

| binding | Binder |
| --- | --- |
| binds | B1 |
| binds | B2 |
| binds | B3 |
| binds | B4 |

These binders were tested against T2, Elp1-HA (S7 Fig) (S. cerevisiae) (assay: co-IP; Elp1-HA immunoprecipitated from extracts of HRR25 and hrr25-2 strains; Western blot with anti-HA, anti-myc and anti-Hrr25; untagged ELP1 as control).

| binding | Binder |
| --- | --- |
| binds | B5 |

Each binder was assayed against T3, Elp3-TAP (S. cerevisiae) (assay: tandem affinity purification with Western blot; Elongator purified by Elp3-TAP from elp1Δ ELP3-TAP strains carrying ELP1-6HA alleles; Western blot for Elp3-TAP and Elp1-6HA).

| binding | Binder |
| --- | --- |
| binds | B1 |
| binds | B2 |
| binds | B3 |
| binds | B4 |
